No constants are given. Whether binding was seen depends on the method and setting. Binding seen in cells or lysates may run through a third protein. These calls come from enrichment with a bait or labelling near it, and not all partners need be listed.
Target: polynucleotide kinase 3'-phosphatase (PNKP), endogenous (human (endogenous in AGS, HEK-293, SH-SY5Y)) (UniProt Q96T60)
Assay: affinity purification with mass spectrometry; large-scale IP from AGS nuclear extract (100 mg, benzonase treated) with anti-PNKP antibody-conjugated agarose beads, mouse IgG as control; washed with TBS (200 mM NaCl, 1 mM EDTA, 1% Triton X-100, 10% glycerol); stepwise elution with 300, 400 and 500 mM NaCl; 2D gel and MALDI-TOF-TOF MS

By UniProt entry, the sequences of proteins in these tests, tags left out.
UniProt P54252: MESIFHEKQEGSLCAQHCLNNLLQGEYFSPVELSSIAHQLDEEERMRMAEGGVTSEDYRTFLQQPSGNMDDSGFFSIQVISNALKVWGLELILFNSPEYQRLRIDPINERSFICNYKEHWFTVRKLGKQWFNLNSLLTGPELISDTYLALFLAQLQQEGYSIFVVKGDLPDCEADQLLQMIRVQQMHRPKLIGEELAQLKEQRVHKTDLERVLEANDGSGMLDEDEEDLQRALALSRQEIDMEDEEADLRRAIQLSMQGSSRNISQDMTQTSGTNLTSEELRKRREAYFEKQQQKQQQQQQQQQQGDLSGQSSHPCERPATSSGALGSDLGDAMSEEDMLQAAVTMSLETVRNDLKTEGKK

binding: binds
Substance: Ataxin-3 (ATXN3), endogenous (from UniProt P54252 1-361)
